Record: PubChem BioAssay AID1159584 (Peter MacCallum Cancer Centre, 2016)
Assay: 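Genes whose loss is lethal only together with E-cadherin loss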 (primary screen). Cells: human MCF10A breast epithelial cells, parental and CDH1-null. Knock-down reagent: siRNA against human genes. Measurement: 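Cell viability by CellTiter-Glo ATP luminescence, each line scaled to the mean of mock wells across plates, then CDH1-null over parental ratio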. Direction: CDH1-null / parental viability ratio: higher = CDH1-null cells survive relatively better than parental; CDH1-null viability vs mock: higher = more viable CDH1-null cells; parental viability vs mock: higher = more viable parental cells.
The deposit covers about 18,000 reagents; this is an unselected part. The numbers tell different reagents against one gene apart. Not given: the amount of reagent, the time to read-out.

| target gene | siRNA no. | CDH1-null / parental viability ratio | CDH1-null viability vs mock (fraction of mock) | parental viability vs mock (fraction of mock) |
| --- | --- | --- | --- | --- |
| BEST3 (bestrophin 3) | 1 | 1.29 | 1.06 | 0.82 |
| GYG2 (glycogenin 2) | 1 | 1.24 | 1.08 | 0.87 |
| ICAM5 (intercellular adhesion molecule 5) | 1 | 0.97 | 0.68 | 0.7 |
| FBXL22 (F-box and leucine rich repeat protein 22) | 1 | 0.88 | 0.6 | 0.68 |
| ZDHHC9 (zDHHC palmitoyltransferase 9) | 1 | 0.99 | 0.76 | 0.77 |
| TFPI2 (tissue factor pathway inhibitor 2) | 1 | 0.96 | 0.77 | 0.8 |
| SFXN5 (sideroflexin 5) | 1 | 0.88 | 0.64 | 0.73 |
| CTXN1 (cortexin 1) | 1 | 0.81 | 0.71 | 0.88 |
| CRIPAK (retired record) | 1 | 0.84 | 0.62 | 0.74 |
| RPS3A (ribosomal protein S3A) | 1 | 1.29 | 0.22 | 0.17 |
| PSMD2 (proteasome 26S subunit ubiquitin receptor, non-ATPase 2) | 1 | 1.28 | 0.41 | 0.32 |
| DEPTOR (DEP domain containing MTOR interacting protein) | 1 | 0.98 | 0.86 | 0.88 |
| C1orf105 (chromosome 1 open reading frame 105) | 1 | 1.06 | 0.7 | 0.66 |
| SYNM (synemin) | 1 | 1.32 | 0.5 | 0.38 |
| TRMT10C (tRNA methyltransferase 10C, mitochondrial RNase P subunit) | 1 | 0.93 | 0.94 | 1.01 |
| SENP2 (SUMO specific peptidase 2) | 1 | 1.25 | 0.76 | 0.61 |
| NEO1 (neogenin 1) | 1 | 1.33 | 0.73 | 0.55 |
| TMEM161A (transmembrane protein 161A) | 1 | 1.14 | 0.87 | 0.76 |
| CCDC102A (coiled-coil domain containing 102A) | 1 | 0.86 | 0.83 | 0.96 |
| XYLB (xylulokinase) | 1 | 1.04 | 0.96 | 0.92 |
| PIK3C3 (phosphatidylinositol 3-kinase catalytic subunit type 3) | 1 | 0.98 | 0.86 | 0.88 |
| CNOT2 (CCR4-NOT transcription complex subunit 2) | 1 | 0.83 | 0.7 | 0.84 |
| BEX4 (brain expressed X-linked 4) | 1 | 0.88 | 0.76 | 0.86 |
| RPS25 (ribosomal protein S25) | 1 | 0.95 | 0.57 | 0.6 |
| ROR2 (ROR family WNT receptor 2) | 1 | 1 | 0.86 | 0.86 |
| TUBGCP4 (tubulin gamma complex component 4) | 1 | 1.35 | 0.62 | 0.46 |
| SUPT4H1 (SPT4 homolog, DSIF elongation factor subunit) | 1 | 0.88 | 0.6 | 0.68 |
| OR13H1 (olfactory receptor family 13 subfamily H member 1) | 1 | 1.29 | 0.88 | 0.68 |
| OMG (oligodendrocyte myelin glycoprotein) | 1 | 1.34 | 0.86 | 0.64 |
| CMPK1 (cytidine/uridine monophosphate kinase 1) | 1 | 1.05 | 0.82 | 0.78 |
| NPEPL1 (aminopeptidase like 1) | 1 | 1.48 | 0.8 | 0.54 |
| FSIP2 (fibrous sheath interacting protein 2) | 1 | 1.1 | 0.92 | 0.84 |
| FSIP2 (fibrous sheath interacting protein 2) | 2 | 1.24 | 0.62 | 0.5 |
| RBM6 (RNA binding motif protein 6) | 1 | 1.11 | 1.26 | 1.14 |
| MEP1B (meprin A subunit beta) | 1 | 1.32 | 0.74 | 0.56 |
| CFAP46 (cilia and flagella associated protein 46) | 1 | 0.55 | 0.41 | 0.74 |
| CFAP46 (cilia and flagella associated protein 46) | 2 | 1.09 | 0.83 | 0.76 |
| FOXC1 (forkhead box C1) | 1 | 1.01 | 0.87 | 0.86 |
| F2RL2 (coagulation factor II thrombin receptor like 2) | 1 | 1.42 | 0.94 | 0.66 |
| SPRR2E (small proline rich protein 2E) | 1 | 0.97 | 0.64 | 0.66 |

The list goes on; the last 6 above are carried over.
| target gene | siRNA no. | CDH1-null / parental viability ratio | CDH1-null viability vs mock (fraction of mock) | parental viability vs mock (fraction of mock) |
| --- | --- | --- | --- | --- |
| MEP1B (meprin A subunit beta) | 1 | 1.32 | 0.74 | 0.56 |
| CFAP46 (cilia and flagella associated protein 46) | 1 | 0.55 | 0.41 | 0.74 |
| CFAP46 (cilia and flagella associated protein 46) | 2 | 1.09 | 0.83 | 0.76 |
| FOXC1 (forkhead box C1) | 1 | 1.01 | 0.87 | 0.86 |
| F2RL2 (coagulation factor II thrombin receptor like 2) | 1 | 1.42 | 0.94 | 0.66 |
| SPRR2E (small proline rich protein 2E) | 1 | 0.97 | 0.64 | 0.66 |
| LRRC8D (leucine rich repeat containing 8 VRAC subunit D) | 1 | 0.49 | 0.34 | 0.7 |
| GADD45A (growth arrest and DNA damage inducible alpha) | 1 | 1.03 | 0.78 | 0.76 |
| APOOL (apolipoprotein O like) | 1 | 1.14 | 0.96 | 0.84 |
| MROH5 (maestro heat like repeat family member 5 (gene/pseudogene)) | 1 | 0.92 | 0.68 | 0.74 |
| MSL3 (MSL complex subunit 3) | 1 | 0.77 | 0.6 | 0.78 |
| TBCCD1 (TBCC domain containing 1) | 1 | 0.87 | 0.73 | 0.84 |
| LMAN1L (lectin, mannose binding 1 like) | 1 | 0.79 | 0.46 | 0.58 |
| EFHC1 (EF-hand domain containing 1) | 1 | 1.31 | 0.94 | 0.72 |
| IP6K2 (inositol hexakisphosphate kinase 2) | 1 | 0.78 | 0.68 | 0.87 |
| TUBA1A (tubulin alpha 1a) | 1 | 0.79 | 0.34 | 0.43 |
| NOD2 (nucleotide binding oligomerization domain containing 2) | 1 | 0.94 | 0.6 | 0.64 |
| RBKS (ribokinase) | 1 | 0.94 | 0.99 | 1.05 |
| MXD4 (MAX dimerization protein 4) | 1 | 0.96 | 0.72 | 0.75 |
| LPP | 1 | 1.22 | 0.98 | 0.8 |
| CES3 (carboxylesterase 3) | 1 | 1.1 | 0.97 | 0.88 |
| CTBS (chitobiase) | 1 | 0.85 | 0.8 | 0.94 |
| TMEM151A (transmembrane protein 151A) | 1 | 1 | 0.76 | 0.76 |
| FLYWCH2 (FLYWCH family member 2) | 1 | 1.2 | 0.96 | 0.8 |
| CFHR5 (complement factor H related 5) | 1 | 1.54 | 0.4 | 0.26 |
| RTN4RL1 (reticulon 4 receptor like 1) | 1 | 0.99 | 0.66 | 0.67 |
| SLC5A2 | 1 | 0.85 | 0.86 | 1.01 |
| SLC6A8 | 1 | 1.03 | 1.01 | 0.98 |
| KIR2DL1 | 1 | 0.81 | 0.6 | 0.74 |
| S100A3 (S100 calcium binding protein A3) | 1 | 1.02 | 0.87 | 0.85 |
| NAGLU (N-acetyl-alpha-glucosaminidase) | 1 | 1 | 0.72 | 0.72 |
| MATN4 (matrilin 4) | 1 | 0.87 | 0.52 | 0.6 |
| LRRC7 (leucine rich repeat containing 7) | 1 | 1.06 | 1.06 | 1 |
| MAP3K4 (mitogen-activated protein kinase kinase kinase 4) | 1 | 1.01 | 0.7 | 0.69 |
